The series can be described thus: general procedure: Fmoc solid-phase peptide synthesis; Wang resin (0.6 mmol/g); 2-chlorotrityl resin (0.6 mmol/g) for branched targeting ligands; HBTU/NMM, double coupling with PyBOP/NMM. The following applies: whole synthesis.

In the case of “PTHrP(1-46) with Glu22, Glu25, Leu23, Leu28, Leu31, Lys26, Lys30, Aib29, C-terminally fused to D-Glu20 (DE20)”, the “final HPLC purity” value (HPLC and mass spectrometry) is given as 94%. The substance also returned an isolated yield (overall) of 19%.
